The assay concerns the target T1, Flag-tagged QKI (Quaking) (UniProt Q9QYS9).
T1 sequence: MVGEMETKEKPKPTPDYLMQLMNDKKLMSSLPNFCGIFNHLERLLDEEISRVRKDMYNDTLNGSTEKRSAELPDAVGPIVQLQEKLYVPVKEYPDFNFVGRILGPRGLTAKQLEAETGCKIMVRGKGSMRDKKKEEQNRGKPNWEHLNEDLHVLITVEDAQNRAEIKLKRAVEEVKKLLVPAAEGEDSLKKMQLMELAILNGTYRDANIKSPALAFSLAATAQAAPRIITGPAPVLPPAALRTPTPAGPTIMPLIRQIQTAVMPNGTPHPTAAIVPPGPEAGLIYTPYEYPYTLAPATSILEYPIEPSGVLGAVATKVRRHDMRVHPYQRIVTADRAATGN
Kind of assay: co-IP; RAW264.7 cells transfected with Flag-tagged QKI; whole-cell lysate immunoprecipitated with anti-Flag, blotted for EDC3 and DDX6; IP buffer 50 mM Tris-Cl pH 7.5, 150 mM KCl, 0.5% NP40.

Results are given in words; binding and its absence hold for the method and conditions named. In cells and extracts the contact can be indirect. Some results given as binding are weak or reduced against the parent protein; the word gives no strength. Sequences can lack the tags named with a protein.

B1: EDC3, endogenous (protein, UniProt Q8K2D3 1-508)
chain: MAMDWLGSIVSINCGDSLGVYQGRVSAVDQVSQTISLTRPFHNGVKCLVPEVTFRAGDITELKILEIPGPGDNQQVGDLHQTELGPSGVGYQMSISQNGTGKVVKKPASSSSAPQSIPKRTDVKSQDVAISPQQQQCSKSYVDRHMESLSQSKSFRRRHNSWSSSSRHPNQATPKKSGLKNGQMKNKDDECFGDDIEELPDTDFDFEGNLALFDKAAVFEEIDTYERRSGSRSRGVPNERPARYRHDENILESEPIVYRRITVPHSVSKEFCTDSGLVVPSVSYELHKKLLSVAEKHGLTLERRLEMTGVCASQMALTLLGGPNRLNPKNVHQRPTVALLCGPHVKGAQGISCGRHLANHDVQVILFLPNFVKMLESITNELSLFSKTQGQQVSSLRDLPASPVDLVINCLDCPENAFLRDQPWYKAAVAWANQNRAPVLSIDPPVHEVEQGIDAKWSLALGLPLPLGEHAGRVYLCDIGIPQQVFQEVGINYHSPFGCKFVIPLHSA
Regarding B1, the binding result was “binds”.

Values taken from PMC9464412.
